Source: article PMC7297794
Results are given in words; binding and its absence hold for the method and conditions named. Binding seen in cells or lysates may run through a third protein. Some results given as binding are weak or reduced against the parent protein; the word gives no strength.

By UniProt entry, the sequences of proteins in these tests, tags left out. Residues count along the entry.
UniProt P35869, residues 11-848: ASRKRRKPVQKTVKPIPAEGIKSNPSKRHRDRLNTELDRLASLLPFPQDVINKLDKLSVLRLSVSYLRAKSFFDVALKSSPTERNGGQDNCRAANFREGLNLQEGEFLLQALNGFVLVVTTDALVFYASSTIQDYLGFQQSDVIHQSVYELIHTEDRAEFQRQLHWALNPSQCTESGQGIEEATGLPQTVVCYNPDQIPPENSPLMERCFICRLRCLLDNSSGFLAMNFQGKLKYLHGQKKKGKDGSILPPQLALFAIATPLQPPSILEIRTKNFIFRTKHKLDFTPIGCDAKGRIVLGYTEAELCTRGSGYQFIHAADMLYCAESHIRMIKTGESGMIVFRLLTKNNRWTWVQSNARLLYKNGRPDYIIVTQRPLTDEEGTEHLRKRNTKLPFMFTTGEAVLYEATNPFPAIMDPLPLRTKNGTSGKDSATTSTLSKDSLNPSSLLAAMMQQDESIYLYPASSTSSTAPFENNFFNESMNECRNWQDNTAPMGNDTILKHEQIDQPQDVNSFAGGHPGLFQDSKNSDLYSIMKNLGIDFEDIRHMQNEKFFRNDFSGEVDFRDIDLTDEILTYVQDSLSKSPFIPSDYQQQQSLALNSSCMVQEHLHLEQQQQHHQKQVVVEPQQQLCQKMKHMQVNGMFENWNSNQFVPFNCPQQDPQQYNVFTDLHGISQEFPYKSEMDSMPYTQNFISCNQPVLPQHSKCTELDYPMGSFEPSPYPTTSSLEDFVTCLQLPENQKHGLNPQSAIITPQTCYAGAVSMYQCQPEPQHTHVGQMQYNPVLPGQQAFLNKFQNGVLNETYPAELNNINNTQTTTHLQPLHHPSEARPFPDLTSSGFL

Biological target: Aryl hydrocarbon receptor (AhR) (UniProt P35869)
Experiment: co-IP; AhR and UCHL3 coexpressed in HEK293T cells; 1 mg of total protein in IP buffer, 2 ug anti-AhR antibody (sc-133088) at 4 °C overnight, Dynabeads protein G; IgG as negative control; UCHL3 detected by western blot

- binding: binds
B1: ubiquitin carboxyl terminal hydrolase L3 (UCHL3) (enzyme, UniProt P15374 1-230)
chain: MEGQRWLPLEANPEVTNQFLKQLGLHPNWQFVDVYGMDPELLSMVPRPVCAVLLLFPITEKYEVFRTEEEEKIKSQGQDVTSSVYFMKQTISNACGTIGLIHAIANNKDKMHFESGSTLKKFLEESVSMSPEERARYLENYDAIRVTHETSAHEGQTEAPSIDEKVDLHFIALVHVDGHLYELDGRKPFPINHGETSDETLLEDAIEVCKKFMERDPDELRFNAIALSAA
